Paper doi:10.1101/2023.08.04.552031
These are yes or no findings as the source states them, for the method shown. Some binding calls cover weakened binding; strength is not graded here. Sequences can lack the tags named with a protein.

Biological target: mNeonGreen::PAR-3, endogenously tagged (C. elegans) (UniProt Q17353)
Experiment: particle tracking with intensities calibrated to single molecules

B1: mNeonGreen::PAR-3, endogenously tagged (protein, UniProt Q17353 1-1379)
chain: MSASSTSSSSTSCPEGGEPSGSCKSSDEGESTLKKRMQQYGIASGYANSSISTLDRSQYQSLPLNGTRRVTVQFGRMKIVVPWKESDQTVGQLADAALLRYKKARGMANEDRIHVHRLECASDGGILDMDDVLEEVFDLNYDQILAITDEANGGSTTPTYSQIQKQQHHYAQPLPYARKFDGGPSTPIASAFGSVTVNHQAHRAASPYNVGFARSNSRDFAPQPTHSKERRDSVVEVSSFDQIPQSGLRVSTPKPSRQSEDVIDGKPMNQPILRSSLRTEASGSRTEEATPVKQSRVTLSPEVEKKLAEQDERKSERRKHYDKNPGRFARGSDRKSRITDALLDARDRIADQLESQNPAEETKSQMIRVKIDQGPMPGTSLVTFPPIPEKSENEKQLGIEVNAVFDESSELPGTSEPTKLSSVQIMKIEDGGRIAKDGRIRVGDCIVAIDGKPVDQMSIIRVRASISDLAAVTSRPVTLIINRSLESFLEQESSAKPIQSALQQANTQYIGHTTVVELIKSSNGFGFTVTGRETAKGERLFYIGTVKPYGVALGHLKSGDRLLEINGTPTGQWTQSEIVEKLKETMVGEKIKFLVSRVSQSAIMSTSASSENKENEETLKVVEEEKIPQKLPLPALMTPPVPKDTPALSPSGASRFEIVIPFINGSSSAGLGVSLKARVSKKSNGSKVDCGIFIKNVMHGGAAFKEGGLRVDDRIVGVEDIDLEPLDNREAQAALAKKLKEVGMISSNVRLTISRYNECNPGQISRDLSRITVDASSPSPSSRMSSHTAPDSLLPSPATRGTSSSGADSSHSRQSSASSAVPAVPARLTERDSIVSDGTSRNDESELPDSADPFNREGLGRKSLSEKRGMGAAADPQHIKLFQDIKHQRQNSAPTSSTQKRSKSQPRSSSQRNYRSPMKLVDLPTTAAASASTNSQNLDDSDMLNRRSQSMESINRPVESILRGTGQIPTGSSSKVQFMQAASPDQHPFPPGAALLRLKNEESRSRDKSRRKSMGNPFSAMRNFFGFGSKSRDASPEKTPTESVQLRSVERPKSIIDERNNGSSERAPPPLPPHQSQRRGSGGNVFVDYGEPYGLIPQYPHNTTSGYESYADSELYDRYAAHRYHPRGGPIIDEDEYIYRQQSTSGNSPINTSSYVNYGLPASNAYHVGSRIPPQTSSGSISKTSGAMRRVYPAEYDEDVAYHQQIPQQSTRYQQGSGSGRGNADYHHMFNSWFAYTGGGAVGAAPVIKSSYGSSPVRIAAASAIERGESFVVEPVSGSSASATDRRGRSTSSGAVASGSSSTGFQYAAKEKYADARSGKFNGGSTRLFIPRHGGGLSAAAFATNFGGEAYETRGGGAGGSPSQYRRRDQGPPHRFPQY
Q: Which binding does the source give for B1 here?
A: binds
